Screen size: about 340,000 compounds; about 4,500 (1.3%) were called active. The inconclusive results got no clear call from the source; some entries with a clear call stand among them for comparison. Calls follow the shape of the dose curve; as a rule, active = well fitted inhibition curve with a large enough effect; inconclusive = small, poorly fitted or top-dose-only effect, or another doubt; inactive = no such curve, though single readings can be large or run the other way. A potency beside an inconclusive call is a rough fit, not a confirmed value.
molecular target: DNA polymerase beta (Homo sapiens) (UniProt P06746); test: qHTS Assay for Inhibitors of DNA Polymerase Beta; settings: Pol beta primer extension/strand displacement, fluorescence kinetic; activity change, negative = inhibition: at 114 µM (top of the series)
Procedure, shortened: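 Preincubation: enzyme (10 nM) with compound, 15 min, RT. Reaction: substrate added to 50 nM final. Reads: 0 and 10 min. Analysis: normalized, Hill fit.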
% is scaled to controls: 0 for no effect and ±100 for the full control effect; potency is read from the fitted curve at half-maximal effect.

Row | Structure (SMILES) | Potency | activity change, negative = inhibition
1 | N#C/C(=C\c1ccc(-c2ccc(Cl)c(C(=O)O)c2)o1)c1nc2ccccc2[nH]1 | inconclusive: 0.562 µM [inhibitor, partial curve] | 
2 | Nn1c(SCC(=O)NC2CCCCC2)nnc1C1CC1 | active: 0.316 µM | 
3 | COc1ccc(-c2cc(CNC(=O)CCl)on2)cc1 | inconclusive: 2.82 µM [inhibitor, single point] | 
4 | Cc1nnc(N2CCN(c3ccccc3)CC2)[nH]c1=O | inactive | 
5 | Cc1cc(C(F)F)n2nc(C(=O)Nc3sc4c(c3C(N)=O)CCC4)nc2n1 | active: 15.8 µM | 
6 | COc1cccc2cc(/C(C)=N/Nc3nc(-c4cc(C)ccc4C)cs3)c(=O)oc12 | active: 39.8 µM | 
7 | Cc1ccc2nc(-c3ccc(NC(=O)C4CCCO4)cc3)[nH]c2c1 (stereo unspecified) | inconclusive: 14.1 µM [inhibitor, partial curve] | 
8 | Cc1cc(NC(=O)c2cc(-c3ccccn3)nc3c(Cl)cccc23)no1 | inactive | 
9 | Cn1c(-c2ccc3nc(N)sc3c2)nc2cc(N)ccc21 | active: 20 µM | 
10 | COc1ccccc1OCCCn1c(C)c(C#N)c2ccccc21 | inconclusive: 39.8 µM [inhibitor, single point] | 
11 | CC(=O)N1CCCc2ccc(NC(=O)c3ccc(C(F)(F)F)cc3)cc21 | inactive | 
12 | CCOc1ccc(N(C(=O)c2ccc(OC)cc2)S(=O)(=O)c2ccc3c(c2)n(C)c(=O)n3C)cc1 | inconclusive: 39.8 µM [inhibitor, single point] | 
13 | O=C(NNC1=Nc2ccccc2SC1)c1ccccc1F | inactive | 
14 | COCC(=O)O[C@]1(CCN(C)CCCc2nc3ccccc3[nH]2)CCc2cc(F)ccc2[C@@H]1C(C)C | inactive | 
15 | Nc1c(C(=O)N/N=C/c2ccc(Cl)cc2)cnn1-c1ccccc1 | inactive | 
16 | CCCCCCN(C(=O)CCCCCN1C(=O)NC(c2ccc(C3CCCCC3)cc2)C(C(=O)OCc2ccccc2)=C1C)C(C(=O)NCCCC)c1ccc(OCC(=O)OC)c(C(=O)OC)c1 (stereo unspecified) | inactive | 
18 | Cc1oc(-c2cccc(Br)c2)nc1CSc1nc2ncccc2[nH]1 | inactive | 
19 | CCn1c(C)nc2cc(C(=O)N/N=C(\C)c3ccc(N4CCOCC4)cc3)ccc21 | inactive | 
20 | COc1ccc(CN2C(=O)c3cccnc3C2=O)cc1S(=O)(=O)N1CC(C)CC(C)C1 (stereo unspecified) | inconclusive: 0.141 µM [inhibitor, full curve, poor fit] | 
21 | CN(C)c1ccc(/C=N/NC(=O)c2cc(-c3ccc4c(c3)OCO4)n[nH]2)cc1 | inconclusive: 17.8 µM [inhibitor, partial curve] | 
22 | N#C/C(=C\c1c(Oc2ccc(F)cc2)nc2ccccn2c1=O)c1nc2ccccc2s1 | inconclusive: 12.6 µM [inhibitor, partial curve, poor fit] | 
23 | Cc1c(C(=O)O)sc2nc(/C=C/c3ccccc3OC(F)F)[nH]c(=O)c12 | active: 39.8 µM | 
24 | O=C(NNc1c2ccccc2nc2ccccc12)c1ccc(O)cc1O | inconclusive: 22.4 µM [inhibitor, full curve] | 

Row | Structure (SMILES) | Potency | activity change, negative = inhibition
25 | O=c1c2c3c(sc2n(CCN2CCCC2)c(=O)n1Cc1ccco1)CCCCC3 | inconclusive: 8.91 µM [inhibitor, partial curve] | 
26 | Cn1cc(-c2cc3n(n2)CCC(=O)N3CCCC(=O)Nc2ccccc2Cl)c2ccccc21 | inconclusive: 4.47 µM [inhibitor, full curve, poor fit] | 
27 | Cc1csc(C(=O)O)c1-n1cccc1 | active: 22.4 µM | 
28 | COC(=O)CCCC1=CC2=CC(=O)C(C)(OC(=O)c3cccs3)C(=O)C2=CN1c1ccc(OC)cc1 (stereo unspecified) | inactive | 
29 | CC(C(=O)NCc1cccc(Br)c1)n1ncn2cccc2c1=O (stereo unspecified) | inconclusive: 20 µM [inhibitor, full curve] | 
30 | COc1cc2cc(C(=O)Nc3ccc4c(c3)OCCO4)[nH]c2cc1OC | inconclusive: 5.62 µM [inhibitor, single point] | 
32 | COc1ccc(CCNC(=O)C(=O)NCC2OCCN2S(=O)(=O)c2ccc(OC)c(OC)c2)cc1OC (stereo unspecified) | inconclusive: 79.4 µM [inhibitor, single point] | 
33 | C/C=C(/C)C(=O)O[C@@H]1[C@H](OC(=O)C=C(C)C)c2c(ccc3ccc(=O)oc23)OC1(C)C | inactive | 
34 | O=C(CNC(=O)c1cccc(Br)c1)N/N=C/c1cccs1 | inconclusive: 28.2 µM [inhibitor, single point] | 
35 | COc1ccc(N(C(=O)c2ccco2)C(C(=O)NC2CCCC2)c2cc(OC)c(OC)c(OC)c2)cc1 (stereo unspecified) | inconclusive: 100 µM [inhibitor, single point] | 
36 | Cc1ccc(C)c(S(=O)(=O)N2CCN(C(=O)Cc3ccsc3)CC2)c1 | inconclusive: 79.4 µM [inhibitor, single point] | 
37 | COC(=O)c1cccc(CSc2nnc(-c3ccco3)n2-c2ccccc2)c1 | inconclusive: 89.1 µM [inhibitor, single point] | 
38 | Cn1c(=O)c2c(nc(SCC(=O)NCc3ccc4c(c3)OCO4)n2Cc2ccc(F)cc2)n(C)c1=O | inconclusive: 89.1 µM [inhibitor, single point] | 
39 | O=C1CN(S(=O)(=O)c2cc(C(=O)O)ccc2Cl)c2ccccc2N1 | active: 50.1 µM | 
40 | O=C(CSc1ccc(C(F)(F)F)cc1[N+](=O)[O-])Nc1ccccc1 | inconclusive: 28.2 µM [inhibitor, full curve, poor fit] | 
41 | O=C(COC(=O)c1cccc2ccccc12)Nc1ncc(C(F)(F)F)cc1Cl | inactive | 
42 | COc1cc2c3nnc(-c4ccc(F)cc4)c-3cn(Cc3cccc(F)c3)c2cc1OC | inconclusive: 89.1 µM [inhibitor, single point] | 
43 | COc1ccc(-c2cc(=O)c3c(O)c(OC)c(O)cc3o2)cc1 | inconclusive: 22.4 µM [inhibitor, partial curve] | 
44 | O=C(Nc1ccc(Cl)c(Cl)c1)c1cc(S(=O)(=O)N2CCN(c3cccc(Cl)c3)CC2)ccc1F | inactive | 
45 | O=C(Cn1nnc(-c2ccc(NC(=O)c3ccccc3F)cc2)n1)NCc1ccc(F)cc1 |  | inconclusive: -89.7% [inhibitor]
46 | CCOc1ccc(NC(=O)Cn2sc3nc(C)cc(C)c3c2=O)cc1 | inactive | 
47 | CCCCCn1c(=O)[nH]c2cc(C(=O)NCc3ccc(F)cc3)ccc2c1=O | inconclusive: 15.8 µM [inhibitor, single point] | 
48 | Cc1ccc2nc(-c3ccc(NC(=O)CSc4ccccc4)cc3)[nH]c2c1 | active: 22.4 µM | 

A run of entries from further up, as a working copy:
Row | Structure (SMILES) | Potency | activity change, negative = inhibition
19 | CCn1c(C)nc2cc(C(=O)N/N=C(\C)c3ccc(N4CCOCC4)cc3)ccc21 | inactive | 
20 | COc1ccc(CN2C(=O)c3cccnc3C2=O)cc1S(=O)(=O)N1CC(C)CC(C)C1 (stereo unspecified) | inconclusive: 0.141 µM [inhibitor, full curve, poor fit] | 

Additional compounds

Row | Structure (SMILES) | Potency | activity change, negative = inhibition
49 | O=C(O)/C=C/C(=O)Nc1ccc(Cl)c(C(=O)O)c1 | inconclusive: 15.8 µM [inhibitor, full curve, poor fit] | 
50 | Cc1cccc(OCCCSc2nc(-c3ccc(C(C)(C)C)cc3)nc3cc(=O)[nH]n23)c1C | inactive | 
51 | COc1ccc([N+](=O)[O-])cc1NC(=O)c1ccc(-n2nc(C)cc2C)cc1 | inconclusive: 7.08 µM [inhibitor, full curve, poor fit] | 
52 | CCCCCN1CC(O)=C(c2nc3ccccc3[nH]2)C1=N | active: 31.6 µM | 
53 | O=C1CC(=O)c2c1cccc2[N+](=O)[O-] |  | inconclusive: -76.2% [inhibitor]
54 | O=C(O)c1ccc(NC(CSCc2ccc(F)cc2)C(=O)O)c([N+](=O)[O-])c1 (stereo unspecified) | inactive | 
55 | CCCN1C2CCCC1CC(NC(=O)Nc1ccc(C(C)C)cc1)C2 (stereo unspecified) | inconclusive: 89.1 µM [inhibitor, single point] | 
56 | CCC(Oc1ccc(C)cc1)C(=O)Nc1ccc(S(=O)(=O)Nc2nccs2)cc1 (stereo unspecified) | inconclusive: 89.1 µM [inhibitor, single point] | 
57 | Cc1[nH]c2ccccc2c1/C=N/NC(=O)Nc1ccccc1 | inconclusive: 100 µM [inhibitor, single point] | 
58 | O=C1/C(=C\c2ccc(-c3ccccc3[N+](=O)[O-])o2)C(c2ccccc2)=NN1c1ccccc1 | inactive | 
59 | COc1ccc(C(=O)Nc2cc(C)ccc2NC(=O)COc2ccccc2)cc1 | inactive | 
60 | Cc1ccc(CSC2=Nc3ccccc3C3=NC(CC(=O)NCc4ccco4)C(=O)N23)cc1 (stereo unspecified) | active: 25.1 µM | 
61 | Brc1ccc(-n2cnc(-c3ccccc3)c2)cc1 | inactive | 
62 | COc1ccc(C(=O)NCC(=O)OCC(=O)Nc2c(C)n(C)n(-c3ccccc3)c2=O)cc1 | inconclusive: 89.1 µM [inhibitor, single point] | 
63 | Cc1ccc[n+](C(C)C(=O)Nc2ccc(C)c(C)c2)c1 (stereo unspecified) | inactive | 
64 | COc1ccc(/C=N/NC(=O)c2ccn[nH]2)cc1COc1ccc(F)cc1 | inconclusive: 0.501 µM [inhibitor, full curve, poor fit] | 
65 | Cc1ccccc1Cn1c(=O)n(CCCCC(=O)NCc2ccccc2Cl)c(=O)c2ccccc21 | inactive | 
66 | O=C(Cn1c(CN2CCCCC2)nc2ccccc2c1=O)Nc1ccccc1 | inconclusive: 79.4 µM [inhibitor, single point] | 
67 | COc1ccc(CCNC(=O)CCS(=O)(=O)c2ccc3c(c2)NC(=O)CS3)cc1OC | inconclusive: 0.251 µM [inhibitor, full curve, poor fit] | 
68 | CC(C)c1cc2c(c(O)c1O)[C@@]13CCCC(C)(C)C1CC2OC3=O (stereo partly specified) | inactive | 
69 | O=C(CCN1C(=O)/C(=C/c2ccc(Cl)cc2)SC1=S)NCCCn1ccnc1 | inconclusive: 25.1 µM [inhibitor, full curve, poor fit] | 
70 | Cc1ccc(-c2noc(-c3nnn(CC(=O)Nc4cccc(C(F)(F)F)c4)c3N)n2)cc1 | inconclusive: 63.1 µM [inhibitor, single point] | 
71 | O=C(O)c1ccc(NC(=O)c2ccccc2NC(=O)c2cccc(F)c2)cc1 | inactive | 

2 of the compounds above, in markdown.

| Row | Structure (SMILES) | Potency | activity change, negative = inhibition |
| --- | --- | --- | --- |
| 65 | Cc1ccccc1Cn1c(=O)n(CCCCC(=O)NCc2ccccc2Cl)c(=O)c2ccccc21 | inactive |  |
| 66 | O=C(Cn1c(CN2CCCCC2)nc2ccccc2c1=O)Nc1ccccc1 | inconclusive: 79.4 µM [inhibitor, single point] |  |
